{"source": "the supplement of paper PMC8728848", "binders": {"B1": {"name": "Erv46-EDTA (Saccharomyces cerevisiae), P39727 (protein)", "chain": "MKFLVNVALVFMVVYISYIYAAAPEHHHHHHDYDIPTTENLYFQGAMDSVVTRPQLVVDRDRHAKLELNMDVTFPSMPCDLVNLDIMDDSGEMQLDILDAGFTMSRLNSEGRPVGDATELHVGGNGDGTAPVNNDPNYCGPCYGAKDQSQNENLAQEEKVCCQDCDAVRSAYLEAGWAFFDGKNIEQCEREGYVSKINEHLNEGCRIKGSAQINRIQGNLHFAPGKPYQNAYGHFHDTSLYDKTSNLNFNHIINHLSFGKPIQSHSKLLGNDKRHGGAVVATSPLDGRQVFPDRNTHFHQFSYFAKIVPTRYEYLDNVVIETAQFSATFHSRPLAGGRDKDHPNTLHVRGGIPGMFVFFEMSPLKVINKEQ"}}, "test_in_all_cases": "glycan array binding signal (z-score within array); higher = stronger binding", "conditions_in_all_cases": "glycan notation: IUPAC condensed, linker removed", "key": {"[1]": {"target": "Neu5Ac(a2-3)Gal(b1-3)[Neu5Ac(a2-6)]GlcNAc(b1-3)[Fuc(a1-3)[Gal(b1-4)]GlcNAc(b1-6)]Gal(b1-4)Glc", "method_in_brief": "(§1)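 The binding signal is a Z-score computed within each array and averaged over linkers. Arrays of the same protein sequence at different concentrations or buffers were also averaged together. Data originate from 3228 arrays in the Consortium for Functional Glycomics database, kept only where the protein sequence was available.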"}, "[2]": {"target": "Neu5Ac(a2-3)Gal(b1-3)]Neu5Ac(a2-3)Gal(b1-4)]GlcNAc", "method_in_brief": "as §1"}, "Neu5Ac(a2-3)Gal(b1-4)Glc": {"target": "Neu5Ac(a2-3)Gal(b1-4)Glc", "method_in_brief": "as §1"}, "[3]": {"target": "Neu5Ac(a2-3)Gal(b1-4)GlcNAc", "method_in_brief": "as §1"}, "[4]": {"target": "Neu5Ac(a2-3)Gal(b1-4)GlcNAc(b1-2)Man", "method_in_brief": "as §1"}, "[5]": {"target": "Neu5Ac(a2-3)Gal(b1-4)GlcNAc(b1-2)Man(a1-3)[GlcNAc(b1-4)][Neu5Ac(a2-3)Gal(b1-4)GlcNAc(b1-2)Man(a1-6)]Man(b1-4)GlcNAc(b1-4)GlcNAc", "method_in_brief": "as §1"}, "[6]": {"target": "Neu5Ac(a2-3)Gal(b1-4)GlcNAc(b1-2)Man(a1-3)[Neu5Ac(a2-3)Gal(b1-4)GlcNAc(b1-2)Man(a1-6)]Man(b1-4)GlcNAc(b1-4)GlcNAc", "method_in_brief": "as §1"}, "[7]": {"target": "Neu5Ac(a2-3)Gal(b1-4)GlcNAc(b1-2)Man(a1-3)[Neu5Ac(a2-3)Gal(b1-4)GlcNAc(b1-2)Man(a1-6)]Man(b1-4)GlcNAc(b1-4)[Fuc(a1-6)]GlcNAc", "method_in_brief": "as §1"}, "[8]": {"target": "Neu5Ac(a2-3)Gal(b1-4)GlcNAc(b1-2)Man(a1-3)[Neu5Ac(a2-6)Gal(b1-4)GlcNAc(b1-2)Man(a1-6)]Man(b1-4)GlcNAc(b1-4)GlcNAc", "method_in_brief": "as §1"}, "[9]": {"target": "Neu5Ac(a2-3)Gal(b1-4)GlcNAc(b1-2)[Neu5Ac(a2-3)Gal(b1-4)GlcNAc(b1-4)]Man(a1-3)[GlcNAc(b1-4)][Neu5Ac(a2-3)Gal(b1-4)GlcNAc(b1-2)[Neu5Ac(a2-3)Gal(b1-4)GlcNAc(b1-6)]Man(a1-6)]Man(b1-4)GlcNAc(b1-4)GlcNAc", "method_in_brief": "as §1"}, "[10]": {"target": "Neu5Ac(a2-3)Gal(b1-4)GlcNAc(b1-2)[Neu5Ac(a2-3)Gal(b1-4)GlcNAc(b1-4)]Man(a1-3)[GlcNAc(b1-4)][Neu5Ac(a2-3)Gal(b1-4)GlcNAc(b1-4)Man(a1-6)]Man(b1-4)GlcNAc(b1-4)GlcNAc", "method_in_brief": "as §1"}, "[11]": {"target": "Neu5Ac(a2-3)Gal(b1-4)GlcNAc(b1-2)[Neu5Ac(a2-3)Gal(b1-4)GlcNAc(b1-6)]Man(a1-6)[Neu5Ac(a2-3)Gal(b1-4)GlcNAc(b1-2)Man(a1-3)][GlcNAc(b1-4)]Man(b1-4)GlcNAc(b1-4)GlcNAc", "method_in_brief": "as §1"}, "[12]": {"target": "Neu5Ac(a2-3)Gal(b1-4)GlcNAc(b1-3)Gal", "method_in_brief": "as §1"}, "[13]": {"target": "Neu5Ac(a2-3)Gal(b1-4)GlcNAc(b1-3)Gal(b1-3)GlcNAc", "method_in_brief": "as §1"}, "[14]": {"target": "Neu5Ac(a2-3)Gal(b1-4)GlcNAc(b1-3)Gal(b1-4)GlcNAc", "method_in_brief": "as §1"}, "[15]": {"target": "Neu5Ac(a2-3)Gal(b1-4)GlcNAc(b1-3)Gal(b1-4)GlcNAc(b1-2)Man(a1-3)[Neu5Ac(a2-3)Gal(b1-4)GlcNAc(b1-3)Gal(b1-4)GlcNAc(b1-2)Man(a1-6)]Man(b1-4)GlcNAc(b1-4)GlcNAc", "method_in_brief": "as §1"}, "[16]": {"target": "Neu5Ac(a2-3)Gal(b1-4)GlcNAc(b1-3)Gal(b1-4)GlcNAc(b1-3)Gal(b1-4)GlcNAc", "method_in_brief": "as §1"}, "[17]": {"target": "Neu5Ac(a2-3)Gal(b1-4)GlcNAc(b1-3)Gal(b1-4)GlcNAc(b1-3)Gal(b1-4)GlcNAc(b1-2)Man(a1-3)[Neu5Ac(a2-3)Gal(b1-4)GlcNAc(b1-3)Gal(b1-4)GlcNAc(b1-3)Gal(b1-4)GlcNAc(b1-2)Man(a1-6)]GalNAc", "method_in_brief": "as §1"}, "[18]": {"target": "Neu5Ac(a2-3)Gal(b1-4)GlcNAc(b1-3)Gal(b1-4)GlcNAc(b1-3)GalNAc", "method_in_brief": "as §1"}, "[19]": {"target": "Neu5Ac(a2-3)Gal(b1-4)GlcNAc(b1-3)Gal(b1-4)GlcNAc(b1-3)[Neu5Ac(a2-3)Gal(b1-4)GlcNAc(b1-3)Gal(b1-4)GlcNAc(b1-6)]GalNAc", "method_in_brief": "as §1"}, "[20]": {"target": "Neu5Ac(a2-3)Gal(b1-4)GlcNAc(b1-3)Gal(b1-4)GlcNAc(b1-6)[Gal(b1-3)]GalNAc", "method_in_brief": "as §1"}, "[21]": {"target": "Neu5Ac(a2-3)Gal(b1-4)GlcNAc(b1-3)Gal(b1-4)[Fuc(a1-3)]GlcNAc", "method_in_brief": "as §1"}, "[22]": {"target": "Neu5Ac(a2-3)Gal(b1-4)GlcNAc(b1-3)GalNAc", "method_in_brief": "as §1"}, "[23]": {"target": "Neu5Ac(a2-3)Gal(b1-4)GlcNAc(b1-3)[Neu5Ac(a2-3)Gal(b1-4)GlcNAc(b1-6)]GalNAc", "method_in_brief": "as §1"}, "[24]": {"target": "Neu5Ac(a2-3)Gal(b1-4)GlcNAc(b1-6)GalNAc", "method_in_brief": "as §1"}, "[25]": {"target": "Neu5Ac(a2-3)Gal(b1-4)GlcNAc(b1-6)[Gal(b1-3)]GalNAc", "method_in_brief": "as §1"}, "[26]": {"target": "Neu5Ac(a2-3)Gal(b1-4)GlcNAc(b1-6)[Neu5Ac(a2-3)Gal(b1-3)]GalNAc", "method_in_brief": "as §1"}, "[27]": {"target": "Neu5Ac(a2-3)Gal(b1-4)GlcNAc6S", "method_in_brief": "as §1"}, "[28]": {"target": "Neu5Ac(a2-3)Gal(b1-4)[Fuc(a1-3)]GlcNAc", "method_in_brief": "as §1"}, "[29]": {"target": "Neu5Ac(a2-3)Gal(b1-4)[Fuc(a1-3)]GlcNAc(b1-2)Man", "method_in_brief": "as §1"}, "[30]": {"target": "Neu5Ac(a2-3)Gal(b1-4)[Fuc(a1-3)]GlcNAc(b1-3)Gal", "method_in_brief": "as §1"}, "[31]": {"target": "Neu5Ac(a2-3)Gal(b1-4)[Fuc(a1-3)]GlcNAc(b1-3)Gal(b1-4)GlcNAc", "method_in_brief": "as §1"}, "[32]": {"target": "Neu5Ac(a2-3)Gal(b1-4)[Fuc(a1-3)]GlcNAc(b1-3)Gal(b1-4)[Fuc(a1-3)]GlcNAc(b1-3)Gal(b1-4)[Fuc(a1-3)]GlcNAc", "method_in_brief": "as §1"}, "[33]": {"target": "Neu5Ac(a2-3)Gal(b1-4)[Fuc(a1-3)]GlcNAc(b1-3)GalNAc", "method_in_brief": "as §1"}, "[34]": {"target": "Neu5Ac(a2-3)Gal(b1-4)[Fuc(a1-3)]GlcNAc(b1-6)[Gal(b1-3)]GalNAc", "method_in_brief": "as §1"}, "[35]": {"target": "Neu5Ac(a2-3)Gal(b1-4)[Fuc(a1-3)]GlcNAc(b1-6)[Neu5Ac(a2-3)Gal(b1-3)]GalNAc", "method_in_brief": "as §1"}, "[36]": {"target": "Neu5Ac(a2-3)Gal(b1-4)[Fuc(a1-3)]GlcNAc6S", "method_in_brief": "as §1"}, "[37]": {"target": "Neu5Ac(a2-3)Gal6S(b1-4)GlcNAc", "method_in_brief": "as §1"}}, "note": "The other results are listed elsewhere or left out."}
{"binder": "B1", "values": [{"measurement": "glycan array binding signal (z-score)", "setting": "[1]", "value": 0.079}, {"measurement": "glycan array binding signal (z-score)", "setting": "[2]", "value": 0.153}, {"measurement": "glycan array binding signal (z-score)", "setting": "Neu5Ac(a2-3)Gal(b1-4)Glc", "value": -0.202}, {"measurement": "glycan array binding signal (z-score)", "setting": "[3]", "value": -0.604}, {"measurement": "glycan array binding signal (z-score)", "setting": "[4]", "value": -0.454}, {"measurement": "glycan array binding signal (z-score)", "setting": "[5]", "value": -0.363}, {"measurement": "glycan array binding signal (z-score)", "setting": "[6]", "value": -0.545}, {"measurement": "glycan array binding signal (z-score)", "setting": "[7]", "value": 0.11}, {"measurement": "glycan array binding signal (z-score)", "setting": "[8]", "value": -0.938}, {"measurement": "glycan array binding signal (z-score)", "setting": "[9]", "value": -0.666}, {"measurement": "glycan array binding signal (z-score)", "setting": "[10]", "value": 0.162}, {"measurement": "glycan array binding signal (z-score)", "setting": "[11]", "value": -0.335}, {"measurement": "glycan array binding signal (z-score)", "setting": "[12]", "value": -0.425}, {"measurement": "glycan array binding signal (z-score)", "setting": "[13]", "value": 0.01}, {"measurement": "glycan array binding signal (z-score)", "setting": "[14]", "value": -0.338}, {"measurement": "glycan array binding signal (z-score)", "setting": "[15]", "value": 1.84}, {"measurement": "glycan array binding signal (z-score)", "setting": "[16]", "value": -0.486}, {"measurement": "glycan array binding signal (z-score)", "setting": "[17]", "value": 1.36}, {"measurement": "glycan array binding signal (z-score)", "setting": "[18]", "value": -1.17}, {"measurement": "glycan array binding signal (z-score)", "setting": "[19]", "value": 0.016}, {"measurement": "glycan array binding signal (z-score)", "setting": "[20]", "value": -0.571}, {"measurement": "glycan array binding signal (z-score)", "setting": "[21]", "value": 0.109}, {"measurement": "glycan array binding signal (z-score)", "setting": "[22]", "value": -0.063}, {"measurement": "glycan array binding signal (z-score)", "setting": "[23]", "value": -1.01}, {"measurement": "glycan array binding signal (z-score)", "setting": "[24]", "value": -0.615}, {"measurement": "glycan array binding signal (z-score)", "setting": "[25]", "value": 0.242}, {"measurement": "glycan array binding signal (z-score)", "setting": "[26]", "value": -0.252}, {"measurement": "glycan array binding signal (z-score)", "setting": "[27]", "value": -0.518}, {"measurement": "glycan array binding signal (z-score)", "setting": "[28]", "value": -0.259}, {"measurement": "glycan array binding signal (z-score)", "setting": "[29]", "value": -0.245}, {"measurement": "glycan array binding signal (z-score)", "setting": "[30]", "value": -0.531}, {"measurement": "glycan array binding signal (z-score)", "setting": "[31]", "value": 0.298}, {"measurement": "glycan array binding signal (z-score)", "setting": "[32]", "value": -0.019}, {"measurement": "glycan array binding signal (z-score)", "setting": "[33]", "value": 1.28}, {"measurement": "glycan array binding signal (z-score)", "setting": "[34]", "value": 1.15}, {"measurement": "glycan array binding signal (z-score)", "setting": "[35]", "value": 0.771}, {"measurement": "glycan array binding signal (z-score)", "setting": "[36]", "value": -0.585}, {"measurement": "glycan array binding signal (z-score)", "setting": "[37]", "value": -0.151}]}
